Data taken from PubChem BioAssay AID504847 (National Center for Advancing Translational Sciences (NCATS), 2011).
The campaign covered roughly 400,000 compounds. About 3,700 (0.93%) were called active. The shares of active, inactive and inconclusive entries below differ from those in the screen. The call rests on the fitted dose curve; in most records, active means well fitted inhibition curve with a large enough effect; inconclusive means small, poorly fitted or top-dose-only effect, or another doubt; inactive means no such curve, though single readings can be large or run the other way. Potencies of inconclusive entries are doubtful fits and often do not repeat.

The chains behind the UniProt entries cited, without tags or fusion partners. Where a name states a change or a piece, a line headed by the entry shows the natural chain unless it says otherwise.
UniProt P11473: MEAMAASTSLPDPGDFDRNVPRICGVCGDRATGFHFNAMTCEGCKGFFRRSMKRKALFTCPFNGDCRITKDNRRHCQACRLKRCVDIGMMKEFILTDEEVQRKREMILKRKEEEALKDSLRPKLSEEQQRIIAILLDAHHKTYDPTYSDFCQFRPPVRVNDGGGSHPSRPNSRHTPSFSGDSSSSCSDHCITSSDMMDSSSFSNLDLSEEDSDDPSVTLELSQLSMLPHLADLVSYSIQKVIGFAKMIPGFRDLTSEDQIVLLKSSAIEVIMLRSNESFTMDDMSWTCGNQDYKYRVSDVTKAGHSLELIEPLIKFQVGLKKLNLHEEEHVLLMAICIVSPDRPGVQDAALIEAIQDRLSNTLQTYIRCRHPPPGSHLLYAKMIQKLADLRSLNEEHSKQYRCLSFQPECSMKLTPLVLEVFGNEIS

Target: Vitamin D3 receptor (Homo sapiens) (UniProt P11473)
Experiment: Inhibitors of the vitamin D receptor (VDR): qHTS
Conditions: VDR-SRC2-3 peptide fluorescence polarization, 2 h; max response, negative = inhibition: hits give low values
Method in brief: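 The screen uses fluorescence polarization to detect compounds that interfere with recruitment of the SRC2-3 coactivator peptide to VDR; plates are read after 2 h at room temperature.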
On the % scale 0 is the no-effect control and ±100 the full control effect; potency means the concentration at half of the fitted maximal effect.

Row | Compound | Potency | max response, negative = inhibition
1 | CCCn1c(=O)c(C(=O)NCCc2ccc(OC)c(OC)c2)c(O)c2ccccc21 | inconclusive: 50.1 µM [inhibitor, partial curve, poor fit] | –
2 | CC(C)(C)Nc1nc(-c2ccccn2)nc2ccccc12 | inconclusive: 89.1 µM [inhibitor, partial curve, poor fit] | –
3 | Cc1ccc(-c2nc3ccccn3c2Nc2ccccc2C)o1 | inconclusive: 79.4 µM [inhibitor, single point] | –
4 | CC1(C)CC(=O)C2=C(C1)N=c1s/c(=C/c3ccc(F)c(F)c3)c(=O)n1C2c1ccc(F)cc1 (stereo unspecified) | inconclusive: 28.2 µM [inhibitor, partial curve, poor fit] | –
5 | Cc1ccc(-n2nnnc2-c2cnoc2-c2cccc(F)c2)cc1 | active: 50.1 µM | –
6 | CC(=O)/C(=C/N(C)C)C(=O)Nc1ccc(Cl)cc1Cl | inconclusive: 79.4 µM [inhibitor, partial curve, poor fit] | –
7 | CC(C)(C)C(=O)OCc1nc(-c2ccc3c(c2)OCCO3)cs1 | inconclusive: 100 µM [inhibitor, single point] | –
8 | COc1cc(Br)c(CNc2cc(C)ccc2C)cc1OC | – | inactive: -10.9%
9 | CC(=O)NCc1ccc(S(=O)(=O)N/N=C/c2ccccc2)cc1 | – | inactive: 1.15%
10 | CC(=O)C1=C(O)C(=O)N(c2ccc(C)cc2)C1c1ccc([N+](=O)[O-])cc1 (stereo unspecified) | – | inactive: -4.25%
11 | CC(C)Oc1ccc(CC(=O)NNC(=S)Nc2ccc(Br)cc2)cc1 | active: 70.8 µM | –
12 | COc1ccc(-c2nc(=N)sn2-c2ccccc2)cc1 | inconclusive: 15.8 µM [inhibitor, full curve, poor fit] | –
13 | CC(C)(C)C1=Nn2c(nnc2-c2n[nH]c3c2CCC3)SC1 | inconclusive: 12.6 µM [inhibitor, partial curve, poor fit] | –
14 | CCCCC/C=C\C/C=C\C/C=C\C/C=C\CCCC(=O)C(F)(F)F | active: 28.2 µM | –
15 | S=c1[nH]nc(Nc2ccc(Cl)cc2)s1 | inconclusive: 89.1 µM [inhibitor, partial curve, poor fit] | –
16 | C=CCSC1=C(C#N)C(c2ccccc2Cl)CC(=O)N1 (stereo unspecified) | inconclusive: 79.4 µM [inhibitor, partial curve, poor fit] | –
17 | Cc1ccc(NC2=CC(c3ccccc3F)N(c3ccc(C)cc3)C2=O)cc1 (stereo unspecified) | inconclusive: 35.5 µM [inhibitor, partial curve, poor fit] | –
18 | Cc1cccn2c(=O)c(/C=C(\C#N)C(N)=O)c(Oc3ccccc3)nc12 | inconclusive: 79.4 µM [inhibitor, partial curve, poor fit] | –
19 | NS(=O)(=O)c1ccc(OC(=O)CNC(=O)OCc2ccccc2)cc1 | inconclusive: 25.1 µM [inhibitor, full curve] | –
20 | N#Cc1ccc(C2=NC(C(F)(F)F)(C(F)(F)F)c3c(n(Cc4ccco4)c(=O)[nH]c3=O)N2)cc1 | inconclusive: 89.1 µM [inhibitor, single point] | –
21 | O=[N+]([O-])c1ccc(N2CCN(Cc3ccncc3)CC2)cc1 | – | inactive: -21.8%
22 | CCCc1cc(N2CCN(c3cc(Cl)ccc3C)CC2)n2cnnc2n1 | – | inactive: -5.55%
23 | O=C1C=CC(=O)N1c1ccc(O)cc1 | active: 25.1 µM | –

Row | Compound | Potency | max response, negative = inhibition
24 | C=CCn1c(=S)[nH]c2scc(-c3ccco3)c2c1=O | inconclusive: 79.4 µM [inhibitor, single point] | –
25 | Cc1ccccc1NC(=O)N1CCCN(c2ccc(C#N)cn2)CC1 | – | inactive: -7.35%
26 | CC1=NN(C(=O)Cn2nc([N+](=O)[O-])c(Br)c2C)C(O)(C(F)(F)F)C1 (stereo unspecified) | inconclusive: 112 µM [inhibitor, single point] | –
27 | O=S(=O)(Nc1ncccn1)c1ccccc1 | inconclusive: 79.4 µM [inhibitor, partial curve] | –
28 | CN(C)c1nc(N/N=C\c2ccc(Cl)c([N+](=O)[O-])c2)nc(Nc2ccc(F)cc2)n1 | – | inactive: 5.9%
29 | CCSC(=O)N=Nc1ccc(O)cc1 | inconclusive: 70.8 µM [inhibitor, single point] | –
30 | O=[N+]([O-])c1cc(-c2cnc3ccccc3n2)ccc1Cl | inconclusive: 89.1 µM [inhibitor, single point] | –
31 | O=C(Nc1ccc(F)c(Cl)c1)Nc1cnccn1 | – | inactive: 6.26%
32 | O=S(=O)(c1ccc(=S)[nH]c1)N1CCCCCC1 | inconclusive: 56.2 µM [inhibitor, partial curve, poor fit] | –
33 | Cc1[nH][nH]c(=O)c1C(c1ccc(-c2ccc(F)cc2)o1)c1c(C)[nH][nH]c1=O | active: 31.6 µM | –
34 | CC(C)c1ccc2c(c1)C1Cc3ccccc3C1N2 (stereo unspecified) | inconclusive: 89.1 µM [inhibitor, single point] | –
35 | O=C(Cn1c(=O)n(-c2ccc(F)cc2)c(=O)c2sc3ccccc3c21)N1CCCC1 | – | inactive: 3.05%
36 | CC(=O)N1N=C(c2c(-c3ccccc3)c3cc(Br)ccc3[nH]c2=O)CC1c1ccco1 (stereo unspecified) | active: 79.4 µM | –
37 | COc1cccc(CNC(=O)Cn2cc3c(n2)-c2c(oc(C(=O)N4CCCC4)c2C)CC3)c1OC | – | inactive: 9.46%
38 | COc1ccc(CNC(=O)c2ccc3ccccc3n2)cc1OC | – | inactive: -2.77%
39 | CC(C)C(NS(=O)(=O)c1ccc2c(c1)OCCCO2)C(=O)O (stereo unspecified) | active: 44.7 µM | –
40 | CCCS(=O)(=O)c1ncc(Cl)c(C(=O)N(Cc2ccccc2)Cc2ccco2)n1 | active: 22.4 µM | –
41 | C=C(c1ccccc1C)[n+]1ccccc1 | inconclusive: 79.4 µM [inhibitor, single point] | –
42 | O=C(/C(=C/c1ccncc1)n1ccnc1)c1ccc(Cl)cc1Cl | active: 79.4 µM | –
43 | CC1(C)Nc2ccc(O)cc2-c2c1ssc2=S | inconclusive: 79.4 µM [inhibitor, partial curve, poor fit] | –
44 | COc1ccccc1NC(=S)NNC(=O)c1nn(C)c(C)c1Br | inconclusive: 50.1 µM [inhibitor, partial curve, poor fit] | –
45 | COc1ccc(-c2cnnc(N/N=C/c3ccc(C)o3)n2)cc1 | active: 44.7 µM | –
46 | Clc1ccc(-c2cc3ccccc3nc2N2CCOCC2)cc1 | inconclusive: 28.2 µM [inhibitor, single point] | –

Record cards, as listed above:
Cc1[nH][nH]c(=O)c1C(c1ccc(-c2ccc(F)cc2)o1)c1c(C)[nH][nH]c1=O in the list: Potency: active: 31.6 µM
NS(=O)(=O)c1ccc(OC(=O)CNC(=O)OCc2ccccc2)cc1 in the list: Potency: inconclusive: 25.1 µM [inhibitor, full curve]
COc1ccccc1NC(=S)NNC(=O)c1nn(C)c(C)c1Br in the list: Potency: inconclusive: 50.1 µM [inhibitor, partial curve, poor fit]
